Reference: PMC11643516, “Design, Synthesis, Structural Insights, Tyrosinase Inhibition, and Sun Protection Factor of New Thiosemicarbazone Derivatives” (Molecules, 2024)
Marks after values point to notes of the source that are not given here.

test: not given; design: method as in PMID 29564550; conditions: reference sunscreen compounds; cited from earlier work

Q: With `O=C(O)/C=C/c1ccc(O)c(O)c1` [CA, caffeic acid] as the compound, how does the “SPF (sun protection factor)” value read?
A: 6.6 ± 0.4 ^b

Q: Which “SPF (sun protection factor)” value does the source give for `O=C(O)/C=C/c1ccccc1` [CI, cinnamic acid] here?
A: 2.0 ± 0.2 ^d

Q: For `COc1cc(/C=C/C(=O)O)ccc1O` [FA, ferulic acid], which “SPF (sun protection factor)” value is on record?
A: 7.5 ± 0.2 ^b

test: Sun protection factor by UV absorbance method (Mansur equation); type: physicochemical; conditions: compounds 50 µM, absorbance 290–320 nm

Q: Which “SPF (sun protection factor)” value does the source give for `NC(=S)N/N=C/c1ccc(O)cc1` [TC1, (E)-2-(4-hydroxybenzylidene)hydrazine-1-carbothioamide] here?
A: 11.0 ± 0.4 ^a,b

Q: Which “SPF (sun protection factor)” value does the source give for `NC(=S)N/N=C/c1ccc(OS(=O)(=O)c2ccccc2)cc1` [TCBS1, (E)-4-((2-carbamothioylhydrazineylidene)methyl)phenyl benzenesulfonate] here?
A: 11 ± 2 ^a,b

Q: For `NC(=S)N/N=C/c1ccc(OS(=O)(=O)c2ccc([N+](=O)[O-])cc2)cc1` [TCBS2, (E)-4-((2-carbamothioylhydrazineylidene)methyl)phenyl 4-nitrolbenzenesulfonate], which “SPF (sun protection factor)” value is on record?
A: 13 ± 2 ^a

Q: Which “SPF (sun protection factor)” value does the source give for `COc1ccc(S(=O)(=O)Oc2ccc(/C=N/NC(N)=S)cc2)cc1` [TCBS3, (E)-4-((2-carbamothioylhydrazineylidene)methyl)phenyl 4-methoxylbenzenesulfonate] here?
A: 10 ± 2 ^a,b

Q: For `Cc1ccc(S(=O)(=O)Oc2ccc(/C=N/NC(N)=S)cc2)cc1` [TCBS4, (E)-4-((2-carbamothioylhydrazineylidene)methyl)phenyl 4-methylbenzenesulfonate], which “SPF (sun protection factor)” value is on record?
A: 14 ± 2 ^a

Q: Which “SPF (sun protection factor)” value does the source give for `NC(=S)N/N=C/c1ccc(OS(=O)(=O)c2ccc(Cl)cc2)cc1` [TCBS5, (E)-4-((2-carbamothioylhydrazineylidene)methyl)phenyl 4-chlorobenzenesulfonate] here?
A: 11 ± 2 ^a,b

Q: With `CS(=O)(=O)Oc1ccc(/C=N/NC(N)=S)cc1` [TCMS1, (E)-4-((2-carbamothioylhydrazineylidene)methyl)phenyl methanesulfonate] as the compound, how does the “SPF (sun protection factor)” value read?
A: 11 ± 2 ^a,b
